A: 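Phenotypic screen: M. tuberculosis growth, cholesterol and DPPC medium, 4 days; the read-out is not stated. Compounds at 50 µM. Higher reads as more growth inhibition (inferred: compounds with an IC50 in retests scored well above the rest). Size under these conditions: about 69,000 compounds, about 370 of them at 50% or above in at least one test.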
B: 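Phenotypic screen: M. tuberculosis growth, glucose 7H9 medium, 3 days; the read-out is not stated. Concentration: 50 µM. Higher reads as more growth inhibition (inferred: compounds with an IC50 in retests scored well above the rest). About 69,000 compounds were tested under these conditions; 1.1% (about 760) showed 50% or more at least once.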

Values are the deposited “Percent Effect”, in %. The record does not define 0% and 100%; most values in the screen are far below 50% and negative numbers occur (in some assays of this library far below -100). The compounds are a random part of those screened. Two or more numbers in one place are separate tests of the same structure; such repeats can differ widely.

| # | structure | A | B |
|---|---|---|---|
| 1 | `COc1ccc(-c2noc([C@@H]3C[C@@H](O)CN3C3CCOCC3)n2)cc1` | -32.43 | -37.87 and 11.55 |
| 2 | `CSCc1cc(F)ccc1CNCc1ccncc1` | -21.58 | 9.324 |
| 3 | `O=C(CCOCC(F)(F)F)N1CCCC1c1noc(C2CC2)n1` (centres undefined) | 4.403 | 4.697 |
| 4 | `Cc1ccc2nc(C3CCCN3Cc3scnc3C)[nH]c2c1` (centres undefined) | 18.67 and 6.445 | 10.15 |
| 5 | `COCCN1CCN(CC(=O)N(C)Cc2ccsc2)CC1` | -2.487 | 12.01 |
| 6 | `Cn1cc(Br)c(C(=O)NCCCn2cc(Br)cn2)n1` | -6.621 | 2.515 |
| 7 | `Fc1ccc(-c2nnc(CNC3CCc4ncnn4C3)o2)cc1` (centres undefined) | 4.262 | 3.296 |
| 8 | `CCOCc1cncc2c1CCN(S(=O)(=O)c1ccccc1)C2` | -9.162 | -2.966 and -6.491 |
| 9 | `O=C(CC1CC1)NCc1cn2c(n1)CN(C(=O)c1cccnc1)CC2` | -6.108 | 19.18 |
| 10 | `Cc1nc(N(C)C)nc(N(C)Cc2cnccn2)c1C` | -4.464 | 6.945 |
| 11 | `CCN1CCN(c2ccc(F)cc2C(C)NCc2ccnn2C)CC1` (centres undefined) | 14.84 | 43.55 and 25.16 |
| 12 | `CC(C)n1nc2c(cc1=O)CN(c1ncnc3ccsc13)CC2` | -14.08 | 5.059 |
| 13 | `COCc1noc(CN2CC(Cc3ccccc3)CC2=O)n1` (centres undefined) | 8.734 | 18.13 |
| 14 | `CC(=O)N1CC(c2ncn(C(C)C)n2)c2cc(C(=O)NC3CC3)ccc21` (centres undefined) | 4.124 and -16.55 | -10.96 and -30.57 |
| 15 | `CC(C)NC(=O)NC[C@H]1OC[C@@H](NCc2cccs2)[C@@H]1O` | -22 | -18.18 and 0.5737 |
| 16 | `CC(NC(=O)CN(C)C(C)C)c1ccc(Oc2cccnc2)c(F)c1` (centres undefined) | -6.563 | -4.71 |
| 17 | `CCCc1n[nH]c(C2CN(C(=O)c3cncnc3C)CCO2)n1` (centres undefined) | -1.193 | 6.365 |
| 18 | `CN(C)c1ncccc1CN1CCOC(C(=O)Nc2ccccc2)C1` (centres undefined) | 9.275 | 31.99 |
| 19 | `CNC(=O)C1CN(Cc2ccc(C#N)cc2F)c2ccccc2O1` (centres undefined) | -19.43 | 8.437 and 3.161 |
| 20 | `Cc1c[nH]c(CN2CCOC(c3ccc(Cl)c(Cl)c3)C2)c(C)c1=O` (centres undefined) | -1.209 | -10.4 |
| 21 | `O=C(Nc1ccc(-n2cccn2)c(F)c1)C1CCN(C(=O)C2CC2)CC1` | -18.81 | 1.038 and 14.43 |
| 22 | `Cc1noc(C)c1CNC(=O)C1(NS(C)(=O)=O)CCCCC1` | 1.854 | -12.8 and -10.18 |
| 23 | `CCN1CCCC12CCN(C(=O)c1ccsc1)CC2.O=C(O)C(F)(F)F` | 1.862 | -4.988 and -5.395 |
| 24 | `[H][C@@]12OCCN(C(=O)COc3ccc(F)cc3)[C@@]1([H])CC[C@H]2OC` | -0.389 | -5.17 |
| 25 | `Cc1ccsc1C(O)CNS(=O)(=O)Cc1ccc(F)cc1` (centres undefined) | -6.808 | -15.38 |
| 26 | `CC(Cn1ccnc1)NC(=O)N(C)Cc1ccc2c(c1)OCO2` (centres undefined) | -23.33 | 25.82 |
| 27 | `CN(C)c1ccc(CN2CCC(C(O)Cc3ccccc3)CC2)cn1` (centres undefined) | 20.59 | 8.03 |
| 28 | `Cc1ccccc1-c1noc(CN2CCOC(Cn3cccn3)C2)n1` (centres undefined) | 7.089 | 23.32 |
| 29 | `O=C(NCc1cccc(N2CC=CC2)c1)NCC(F)(F)F` | -11.21 and 0.2076 | -4.914 |
| 30 | `CNC(=O)c1sccc1S(=O)(=O)NC` | 5.369 | 12.57 |
| 31 | `Cc1ccc(CN2CCC3(CC(C(=O)NCC4CC4)=NO3)C2)s1` (centres undefined) | -0.5839 | 20.48 and 6.969 |
| 32 | `Cc1cc(C(F)(F)F)nn1CCNC(=O)C(C)n1ccnc1C(C)C` (centres undefined) | -15.42 | -34.57 |
| 33 | `CSCCC(O)C(=O)N(C)Cc1cnn(-c2ccc(F)cc2)c1` (centres undefined) | 5.189 | 6.307 |
| 34 | `Cn1c(=O)oc2ccc(Nc3ncc(C#N)cc3Cl)cc21` | 4.212 | 12.55 |
| 35 | `O=C(O)c1ccc(CC2CCN(S(=O)(=O)N3CCOCC3)C2)cc1` (centres undefined) | -26.12 | -24.05 |
| 36 | `CC(=O)N1Cc2nccn2CC(CNC(=O)c2cccnc2)C1.O=C(O)C(F)(F)F` (centres undefined) | -5.554 | -17.3 and -5.029 |
| 37 | `Cc1ccc(CN2CC[C@@H](O)[C@@H]2Cc2cnn(C)c2)o1.O=C(O)C(F)(F)F` | 22.76 and -7.706 | -18.58 |
| 38 | `Cc1cc(C(=O)NCCN2CCCC(C)C2)nn1C(C)(C)C` (centres undefined) | -6.225 | 8.922 |
| 39 | `Cc1cc2c(cc1Cl)C=CC1(CCN(CC(=O)N3CCCC3)CC1)O2` | 6.952 and 38.48 | 7.614 |
| 40 | `Cc1nn(C)c(C)c1CN1CCNCC1` | 25.74 | 14.54 |

Some entries from above, unchanged:

{"structure": "Cc1ccc(CN2CC[C@@H](O)[C@@H]2Cc2cnn(C)c2)o1.O=C(O)C(F)(F)F", "A": "22.76 and -7.706", "B": -18.58}
{"structure": "O=C(CCOCC(F)(F)F)N1CCCC1c1noc(C2CC2)n1", "stereo": "centres undefined", "A": 4.403, "B": 4.697}
{"structure": "CSCc1cc(F)ccc1CNCc1ccncc1", "A": -21.58, "B": 9.324}

Source: ChEMBL document CHEMBL3988442, “University of Dundee, Small-Polar-MMV Screening Library” (2021).